The values that follow come from article PMC10890666, “Targeted Affinity Purification and Mechanism of Action of Angiotensin-Converting Enzyme (ACE) Inhibitory Peptides from Sea Cucumber Gonads” (Marine Drugs, 2024).

No constants are given. Whether binding was seen depends on the method and setting. Binding seen in cells or lysates may run through a third protein. These calls come from enrichment with a bait or labelling near it, and not all partners need be listed.

This assay addresses T1, angiotensin-I-converting enzyme (ACE) (UniProt P12822).
T1 sequence: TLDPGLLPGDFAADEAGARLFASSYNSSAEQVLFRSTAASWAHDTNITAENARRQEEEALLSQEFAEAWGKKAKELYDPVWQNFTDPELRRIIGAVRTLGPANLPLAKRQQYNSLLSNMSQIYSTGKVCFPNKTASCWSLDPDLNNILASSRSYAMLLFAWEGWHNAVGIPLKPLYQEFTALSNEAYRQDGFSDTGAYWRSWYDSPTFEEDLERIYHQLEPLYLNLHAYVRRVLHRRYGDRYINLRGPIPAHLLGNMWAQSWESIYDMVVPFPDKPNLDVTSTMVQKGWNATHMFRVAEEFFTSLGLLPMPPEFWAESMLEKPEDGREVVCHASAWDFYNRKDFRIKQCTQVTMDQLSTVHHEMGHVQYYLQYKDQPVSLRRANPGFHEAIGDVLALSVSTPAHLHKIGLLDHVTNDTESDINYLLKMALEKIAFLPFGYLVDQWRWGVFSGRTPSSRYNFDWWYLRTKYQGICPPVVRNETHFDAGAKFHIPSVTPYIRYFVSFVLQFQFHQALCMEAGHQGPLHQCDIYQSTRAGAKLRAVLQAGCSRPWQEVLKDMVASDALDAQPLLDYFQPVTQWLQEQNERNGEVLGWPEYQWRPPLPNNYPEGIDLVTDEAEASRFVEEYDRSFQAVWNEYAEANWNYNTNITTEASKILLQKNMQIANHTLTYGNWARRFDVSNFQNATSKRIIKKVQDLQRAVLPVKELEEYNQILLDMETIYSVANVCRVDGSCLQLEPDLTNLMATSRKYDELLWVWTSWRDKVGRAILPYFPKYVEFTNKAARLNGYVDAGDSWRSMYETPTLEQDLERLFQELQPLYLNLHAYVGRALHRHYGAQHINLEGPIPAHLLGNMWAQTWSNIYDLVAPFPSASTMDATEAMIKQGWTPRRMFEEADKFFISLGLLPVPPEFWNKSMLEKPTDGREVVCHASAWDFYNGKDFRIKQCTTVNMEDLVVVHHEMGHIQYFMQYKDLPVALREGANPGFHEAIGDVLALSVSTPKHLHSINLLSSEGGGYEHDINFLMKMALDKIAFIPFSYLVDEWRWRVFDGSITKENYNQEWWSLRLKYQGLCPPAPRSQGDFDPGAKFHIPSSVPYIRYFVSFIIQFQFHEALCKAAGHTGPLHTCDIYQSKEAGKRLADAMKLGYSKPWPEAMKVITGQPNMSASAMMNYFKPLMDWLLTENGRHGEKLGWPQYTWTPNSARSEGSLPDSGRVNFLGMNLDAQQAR
Briefly: affinity purification with mass spectrometry; ACE immobilised on CNBr-activated Sepharose 4B; <3 kDa peptide fraction of the hydrolysate loaded in 50 mmol/L borate pH 7.4, washed, eluted with 0.1 M borate with 1 M NaCl pH 8.3; eluent separated by RP-HPLC, subfraction A2-2 identified by LC-MS/MS; only the target purified.
GPVGNPGIGGPQ: the binding entry is “binds”.
Under DDQYHIF stands “binds”.
As to IGGGDDSFNTF, the binding entry is “binds”.
As to GEDHIPGSPF, the binding result was “binds”.
As for THDWWKER, the binding result is reported as “binds”.
Regarding LPGDNVGFN, the binding result is listed as “binds”.
As for QGPPGGPGLGGQ, the entry is “binds”; as for DKDVPGSPF, “binds”; as for GQDDLFDDM, “binds”.
As to SGAPGAQGPIGF, the binding result is “binds”.
Under GPNDERFGPR stands “binds”; under AENDDPNFF, “binds”.
Turning to QDAPVPGSPL, the binding entry is recorded as “binds”.
Under FDDINLH stands “binds”.
Under DIIHDPGR stands “binds”; under SDDFFNR, “binds”.
Under ADDFYYQ stands “binds”; under FQDDIDKM, “binds”; under FSGEDDPMYQ, “binds”.
As to HDWWKER, the binding result is on record as “binds”.
